Results: US20210122822A1 (FORTY SEVEN, published 2021)
No constants are given. Whether binding was seen depends on the method and setting. Some entries that bind do so weakly or less than the wild type.

Protein sequences, listed by entry. Tags and fused reporters are not part of them. Residues count along the entry.
UniProt P10721, residues 26-520: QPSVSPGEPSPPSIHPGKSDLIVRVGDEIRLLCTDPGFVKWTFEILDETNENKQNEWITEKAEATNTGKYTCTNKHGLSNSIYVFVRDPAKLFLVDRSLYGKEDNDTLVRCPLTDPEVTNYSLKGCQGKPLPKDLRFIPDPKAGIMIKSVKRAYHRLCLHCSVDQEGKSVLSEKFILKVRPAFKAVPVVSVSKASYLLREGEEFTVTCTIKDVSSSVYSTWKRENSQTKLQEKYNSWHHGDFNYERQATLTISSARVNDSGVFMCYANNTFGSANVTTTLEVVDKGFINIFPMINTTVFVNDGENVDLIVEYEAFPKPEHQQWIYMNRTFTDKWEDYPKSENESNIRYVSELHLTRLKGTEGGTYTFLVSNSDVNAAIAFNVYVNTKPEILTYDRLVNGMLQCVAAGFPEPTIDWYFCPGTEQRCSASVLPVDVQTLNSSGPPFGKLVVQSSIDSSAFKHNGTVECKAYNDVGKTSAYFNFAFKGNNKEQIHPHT

How the values were obtained:
[1] = target: T1, human c-Kit-Fc fusion protein (human, UniProt P10721 26-520, limits assumed); assay: ELISA, coated human c-Kit-Fc, FIG. 2D (members named at paragraph 117)
T1 construct: not shown: Fc part of the fusion protein
Experimental: (§1) Antigen binding activity measurement by ELISA. 96-well plates (Nunc, Roskilde, Denmark) were coated with 1 ug/ml human c-Kit-Fc fusion protein in phosphate-buffered saline (PBS) for 16 hr at 4° C. After blocking for 1 hr with 0.4% BSA in PBS at room temperature, anti-c-Kit antibodies were added in 1/3 sequential dilutions, and incubated for 1 hr at room temperature. Plates were subsequently washed three times and incubated with HRP-conjugated goat anti-human kappa-specific antibody for 1 hr at room temperature. After washing, plates were developed with TMB. The reaction was stopped with 2M […], and OD was measured at 450 nm.

[2] = target: T1, human c-Kit-Fc fusion protein; assay: ELISA, coated human c-Kit-Fc, against AMG191
Experimental: as §1

B1: AF-1-1 (antibody, V domains shown)
VH: QVQLVQSGAEVKKPGASVKVSCKASGYTFTSYNMHWVRQAPGQGLEWMGVIYSGNGDTSYAQKFQGRVTITADKSTSTAYMELSSLRSEDTAVYYCARERDTRFGNWGQGTLVTVSS
VL: DIVMTQSPDSLAVSLGERATINCRASDSVDIYGNSFMHWYQQKPGQPPKLLIYLASNLESGVPDRFSGSGSGTDFTLTISSLQAEDVAVYYCQQNNEDPYTFGGGTKVEIK
With B1 the binding [1] was “binds” and the binding [2] was “binds”.
